PubChem BioAssay AID1259254, NCATS | 2017
Here is one part, drawn at random, of about 59,000 deposited reagents. About 1,550 of all reagents (2.6%) count as active. 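G2 share is only a proxy for re-replication; each gene was hit by three separate siRNAs, and active genes were retested.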 Raw values are not corrected between plates. The numbers tell different reagents against one gene apart. Reagent sequences are not shown. Not given: the amount of reagent.

- Test: 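Genome-wide screen for genes that prevent DNA re-replication in cancer cells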 (primary screen)
- Cell system: human HCT116 colorectal cancer cells
- Knock-down reagent: single siRNA against human genes
- Time to read-out: 3 days
- Detection: 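Imaged Hoechst DNA stain sorts each cell into a cycle phase by DNA amount; per plate, G2 fraction set to 0% for non-targeting and 100% for GMNN siRNA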
- Direction: G2 robust z-score and G2 cells, % of GMNN control: higher = more G2 cells, more excess DNA replication; raw share of cells in G2: higher = larger share of cells with G2 DNA content
- Rule for the call: 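Active siRNAs have a G2 robust z of 5 or more median absolute deviations over the median, which in these data means about 38% or higher of GMNN control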

target	siRNA no.	G2 robust z-score	G2 cells, % of GMNN control	raw share of cells in G2 (%)	activity call
RNPS1	1	-0.0368	2.71	4.72	inactive
RNPS1	2	0.872	9.11	10.1	inactive
RNPS1	3	-0.123	2.1	6.61	inactive
LOC729680 (retired record)	1	0.0936	3.63	5.52	inactive
LOC729680 (retired record)	2	0.588	7.11	5.62	inactive
LOC729680 (retired record)	3	0.123	3.84	4.57	inactive
FBF1	1	0.2	4.38	5.94	inactive
FBF1	2	0.13	3.88	4.22	inactive
FBF1	3	-0.289	0.933	3.22	inactive
MATN3	1	1.74	15.2	9.51	inactive
MATN3	2	-0.455	-0.231	4.74	inactive
MATN3	3	-0.104	2.23	3.92	inactive
SF3B3	1	3.44	27.2	13.2	inactive
SF3B3	2	0.306	5.12	5.62	inactive
SF3B3	3	1.47	13.3	11.7	inactive
DOK7	1	-0.218	1.43	3.7	inactive
DOK7	2	1.16	11.1	7.69	inactive
DOK7	3	1.13	10.9	7.27	inactive
MYC	1	-1.32	-6.31	1.11	inactive
MYC	2	-1.31	-6.28	2.93	inactive
MYC	3	0.364	5.53	7.66	inactive
RNPEP	1	-1.04	-4.35	4.04	inactive
RNPEP	2	-0.492	-0.492	4.73	inactive
RNPEP	3	-0.549	-0.898	3.57	inactive
RPAIN	1	3.3	26.2	12.8	inactive
RPAIN	2	1.48	13.4	7.42	inactive
RPAIN	3	-1.08	-4.62	1	inactive
PLEKHG4B	1	0.464	6.23	5.84	inactive
PLEKHG4B	2	-0.539	-0.826	2.68	inactive
PLEKHG4B	3	-0.139	1.99	3.39	inactive
GNAO1	1	-0.153	1.89	4.33	inactive
GNAO1	2	-1.44	-7.17	2.64	inactive
GNAO1	3	-0.46	-0.266	5.16	inactive
ABHD3	1	3.83	29.9	15.6	inactive
ABHD3	2	1.66	14.7	13	inactive
ABHD3	3	-0.623	-1.42	4.1	inactive
BPHL	1	-1.02	-4.21	3.29	inactive
BPHL	2	5.07	38.6	18.8	active
BPHL	3	-1.17	-5.26	2.03	inactive
SUCLA2	1	-0.487	-0.462	4.33	inactive
SUCLA2	2	-1.59	-8.23	2.37	inactive
SUCLA2	3	-0.615	-1.36	4.22	inactive
AKNAD1	1	-0.965	-3.82	2.19	inactive
AKNAD1	2	0.129	3.88	4.46	inactive
AKNAD1	3	1.63	14.4	7.8	inactive
NDUFB3	1	-1.01	-4.11	1.84	inactive
NDUFB3	2	-0.657	-1.65	4.72	inactive
NDUFB3	3	0.836	8.85	8.98	inactive
LRP4	1	4.34	33.5	18.7	inactive
LRP4	2	7.12	53.1	25.9	active
LRP4	3	3.62	28.4	12.6	inactive
SOX7	1	-0.544	-0.861	4.47	inactive
SOX7	2	0.985	9.9	9.55	inactive
SOX7	3	0.86	9.01	7.46	inactive
SSBP4	1	2.48	20.4	12.2	inactive
SSBP4	2	0.178	4.22	6.47	inactive
SSBP4	3	3.11	24.8	17.8	inactive
MLN	1	-1.05	-4.4	3.66	inactive
MLN	2	2.06	17.5	12.4	inactive
MLN	3	0.16	4.09	4.55	inactive
CLEC12A	1	0.488	6.4	4.79	inactive
CLEC12A	2	0.462	6.22	5.83	inactive
CLEC12A	3	0.732	8.12	5.68	inactive
TP53I13	1	4.23	32.7	16.9	inactive
TP53I13	2	0.164	4.12	7.59	inactive
TP53I13	3	0.963	9.75	9.15	inactive
ERN1	1	-0.165	1.81	6.15	inactive
ERN1	2	-0.144	1.95	5.9	inactive
ERN1	3	0.112	3.75	4.88	inactive
